Laboratory results reported in PubChem BioAssay AID504467 (National Center for Advancing Translational Sciences (NCATS), 2011).
The campaign covered roughly 330,000 compounds. About 7,700 (2.3%) were called active. Inconclusive results, whose numbers are uncertain, are shown with a selection of clear calls. Calls follow the shape of the dose curve; as a rule, active = well fitted inhibition curve with a large enough effect; inconclusive = small, poorly fitted or top-dose-only effect, or effect the other way; inactive = flat fitted curve, though single readings scatter. Potencies of inconclusive entries are doubtful fits and often do not repeat.

assay: qHTS screen for small molecules that inhibit ELG1-dependent DNA repair in human embryonic kidney (HEK293T) cells expressing luciferase-tagged ELG1; details: HEK293T ELG1-luciferase reporter, luminescence, 16 h, DNA damage induced by 5-fluorouridine; activity change, negative = inhibition: at 46.1 µM (top of the series); also: nearly all actives have a fitted effect of over 55% in size
In short: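 Cells (2,000 per well) received 5-fluorouridine plus test compound or DMSO and were incubated 16 hr at 37 °C, 5% CO2. Luciferase activity was read by luminescence 30 min after ONE-Glo addition; signal suppression marked inhibition of damage-induced ELG1 function.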
% is scaled to controls: 0 for no effect and ±100 for the full control effect; potency is read from the fitted curve at half-maximal effect.

| SMILES | Potency | activity change, negative = inhibition |
| --- | --- | --- |
| CCc1nc(SCc2ccccc2)n[nH]1 | inconclusive: 18.3 µM [activator, partial curve, poor fit] | – |
| COc1ccccc1NC(=O)CSCc1cc(=O)n2c(C)csc2n1 | – | inactive: -0.538% |
| COc1cc(C(=O)OC(C)C(=O)N2CCc3ccccc3C2)ccc1OCC(=O)N1CCOCC1 (centres undefined) | inconclusive: 23.1 µM [inhibitor, partial curve, poor fit] | – |
| COC(=O)Nc1ccc(S(=O)(=O)N2CCN(CCN3C(=O)C4C5C=CC(C5)C4C3=O)CC2)cc1 (centres undefined) | inconclusive: 18.4 µM [inhibitor, partial curve, poor fit] | – |
| COCCCN(C(=O)CCSc1ccc(F)cc1)c1c(N)n(Cc2ccccc2)c(=O)[nH]c1=O | – | inactive: 17.9% |
| O=C(Nc1nnc(-c2ccc(F)cc2)o1)c1cccc([N+](=O)[O-])c1 | inconclusive: 6.51 µM [inhibitor, single point] | – |
| CCCCC(CC(O)COCC(C)C)C(=O)NN (centres undefined) | – | inconclusive: 20.7% [activator] |
| COc1ccc(NC(=O)CN(C)S(=O)(=O)c2ccccc2)cc1 | inconclusive: 25.9 µM [activator, single point] | – |
| O=C(/C=C/c1ccc2c(c1)OCO2)N1CCOCC1 | inconclusive: 29.1 µM [activator, single point] | – |
| CCNS(=O)(=O)c1ccc(NC(=O)c2ccccc2)cc1 | inconclusive: 3.26 µM [activator, partial curve, poor fit] | – |
| COc1ccc(Nc2nc(NCC3CCCO3)c3ccccc3n2)c(OC)c1 (centres undefined) | active: 13 µM | – |
| O=C(NCCN1CCOCC1)c1ccc(/C=C2\Sc3ccccc3N(Cc3ccccc3F)C2=O)cc1 | active: 20.6 µM | – |
| COc1ccc(OC)c(NC(=O)Cn2c(=O)n(CC3CCCO3)c(=O)c3cc(OC)c(OC)cc32)c1 (centres undefined) | inconclusive: 13 µM [inhibitor, partial curve, poor fit] | – |
| O=C(Nc1ccccc1N1CCN(C(=O)c2ccccc2)CC1)c1cc(Br)ccc1Cl | inconclusive: 25.1 µM [inhibitor, partial curve, poor fit] | – |
| C=CCSc1nc2ccccc2c2nc(-c3ccccc3)nn12 | inconclusive: 29.1 µM [activator, single point] | – |
| CCCCCn1c(=O)[nH]c2cc(C(=O)NCCN3CCC(C)CC3)ccc2c1=O | – | inactive: 26.1% |
| COc1ccc(NC(=O)CN(C)S(=O)(=O)c2ccc3c(c2)CCC(=O)N3)c(OC)c1 | – | inactive: -0.115% |
| CCc1ccc(-c2cc(C(=O)Nn3cnnc3)c3ccccc3n2)cc1 | inconclusive: 0.92 µM [activator, partial curve] | – |
| COc1ccc(/C=C2\SC(=O)N(CCNC(=O)Cn3cnnn3)C2=O)cc1 | inconclusive: 9.2 µM [activator, partial curve] | – |
| O=C(O)c1ccccc1 | – | inactive: 1.15% |
| Cn1c(CCN2CCOCC2)nc2cc(NC(=O)c3cccs3)ccc21 | – | inactive: 1.8% |
| Cc1cc(C)cc(OCC(=O)Nc2nc(-c3cccnc3)cs2)c1 | inconclusive: 29.1 µM [activator, single point] | – |

| SMILES | Potency | activity change, negative = inhibition |
| --- | --- | --- |
| CCC(CC)C(=O)Nc1cccc(C(=O)Nc2ccc(S(=O)(=O)Nc3ccc(C)cc3)cc2)c1 | inconclusive: 8.2 µM [inhibitor, single point] | – |
| Cc1cc(C)n(-c2ccc(C(=O)OCC(=O)c3c(N)n(C)c(=O)n(C)c3=O)cc2)n1 | inconclusive: 35.5 µM [inhibitor, single point] | – |
| CCOc1cc(N2CCOCC2)c(OCC)cc1NC(=O)COC(=O)c1ccc([N+](=O)[O-])o1 | – | inactive: 7.92% |
| Cc1nn(-c2ccccc2)c2nc(N)c(C(N)=O)cc12 | inconclusive: 29.1 µM [activator, single point] | – |
| O=C(Nc1cccc(F)c1)c1ccc(S(=O)(=O)NCC2CCCO2)cc1 (centres undefined) | inconclusive: 16.4 µM [inhibitor, partial curve] | – |
| CCOC(=O)C1CCN(c2c(Nc3cc(C)cc(C)c3)c(=O)c2=O)CC1 | inconclusive: 8.2 µM [inhibitor, partial curve] | – |
| CC(C)NC(=O)c1ccc(C(C)C)cc1 | inconclusive: 16.4 µM [activator, partial curve, poor fit] | – |
| CCOc1ccc(OCCCC(=O)NNC(=O)c2ccncc2)cc1 | – | inactive: 27.2% |
| COc1cccc(-c2nc(NCCN3CCOCC3)c3ccccc3n2)c1O | inconclusive: 10.3 µM [inhibitor, partial curve] | – |
| CN(CC(=O)NCCc1ccc(S(N)(=O)=O)cc1)S(=O)(=O)c1ccc(Br)s1 | – | inactive: -4.66% |
| Cc1cc(C)c(S(=O)(=O)Nc2c(C)[nH]c(=O)[nH]c2=O)c(C)c1 | inconclusive: 23.1 µM [inhibitor, single point] | – |
| O=C(NC1CCS(=O)(=O)C1)c1ccccc1Cl (centres undefined) | inconclusive: 16.4 µM [activator, partial curve] | – |
| CC(=O)c1ccc(OCCNS(=O)(=O)c2ccc(-n3cnnn3)c(C)c2)cc1 | inconclusive: 8.2 µM [inhibitor, partial curve] | – |
| Cc1ccc(NC(=O)c2ccc(OC(=O)COc3ccc(Cl)c(C)c3)cc2)cc1 | inconclusive: 8.2 µM [activator, partial curve] | – |
| CCN1C(=O)c2cccc3c(NC(=O)c4ccc5c(c4)OCCO5)ccc1c23 | inconclusive: 5.8 µM [activator, full curve] | – |
| CCOc1ccccc1CNC(=O)C(C)n1nc(C)c2c(C)n(-c3ccccc3)nc2c1=O (centres undefined) | inconclusive: 25.9 µM [inhibitor, single point] | – |
| CC(=O)N1c2ccc(S(=O)(=O)NCCC(=O)Nc3ccc(F)cc3C)cc2CC1C (centres undefined) | – | inactive: 6.44% |
| CCn1c(CSCc2ccc(C)cc2)n[nH]c1=S | – | inactive: 0.925% |
| Cc1c(C(=O)NCc2ccco2)oc2c(F)cccc12 | – | inactive: 11.1% |
| O=C(Cc1cccs1)Nc1cccc(-c2nnc(-c3ccco3)o2)c1 | inconclusive: 29.1 µM [inhibitor, single point] | – |
| O=C(NC(=S)NCC1CCCO1)c1ccc(Cl)cc1Cl (centres undefined) | inconclusive: 18.4 µM [activator, single point] | – |
| Cc1cc(/C=N/Nc2nc(N3CCOCC3)nc(N3CCOCC3)n2)c(C)n1-c1ccccc1 | active: 7.3 µM | – |

Whole records, looked up by structure. Values in the order: Potency | activity change, negative = inhibition
CN(CC(=O)NCCc1ccc(S(N)(=O)=O)cc1)S(=O)(=O)c1ccc(Br)s1 reads – | inactive: -4.66%
CC(=O)c1ccc(OCCNS(=O)(=O)c2ccc(-n3cnnn3)c(C)c2)cc1 reads inconclusive: 8.2 µM [inhibitor, partial curve] | –
